No constants are given. Whether binding was seen depends on the method and setting. Binding seen in cells or lysates may run through a third protein. Some binding calls cover weakened binding; strength is not graded here.
Assays:
Assay in all cases: co-IP; endogenous proteins in U87MG cell lysate; lysis buffer 20 mM HEPES pH 6.8, 140 mM NaCl, 2.5 mM MgCl2, 2.5 mM CaCl2, 1% NP40, 0.5% sodium deoxycholate; primary antibodies overnight at 4 °C, then Protein G Dynabeads; rabbit IgG as control
[1] = biological target: T1, PI3K catalytic subunit δ (human (endogenous in U87MG)) (UniProt O00329)
T1 sequence: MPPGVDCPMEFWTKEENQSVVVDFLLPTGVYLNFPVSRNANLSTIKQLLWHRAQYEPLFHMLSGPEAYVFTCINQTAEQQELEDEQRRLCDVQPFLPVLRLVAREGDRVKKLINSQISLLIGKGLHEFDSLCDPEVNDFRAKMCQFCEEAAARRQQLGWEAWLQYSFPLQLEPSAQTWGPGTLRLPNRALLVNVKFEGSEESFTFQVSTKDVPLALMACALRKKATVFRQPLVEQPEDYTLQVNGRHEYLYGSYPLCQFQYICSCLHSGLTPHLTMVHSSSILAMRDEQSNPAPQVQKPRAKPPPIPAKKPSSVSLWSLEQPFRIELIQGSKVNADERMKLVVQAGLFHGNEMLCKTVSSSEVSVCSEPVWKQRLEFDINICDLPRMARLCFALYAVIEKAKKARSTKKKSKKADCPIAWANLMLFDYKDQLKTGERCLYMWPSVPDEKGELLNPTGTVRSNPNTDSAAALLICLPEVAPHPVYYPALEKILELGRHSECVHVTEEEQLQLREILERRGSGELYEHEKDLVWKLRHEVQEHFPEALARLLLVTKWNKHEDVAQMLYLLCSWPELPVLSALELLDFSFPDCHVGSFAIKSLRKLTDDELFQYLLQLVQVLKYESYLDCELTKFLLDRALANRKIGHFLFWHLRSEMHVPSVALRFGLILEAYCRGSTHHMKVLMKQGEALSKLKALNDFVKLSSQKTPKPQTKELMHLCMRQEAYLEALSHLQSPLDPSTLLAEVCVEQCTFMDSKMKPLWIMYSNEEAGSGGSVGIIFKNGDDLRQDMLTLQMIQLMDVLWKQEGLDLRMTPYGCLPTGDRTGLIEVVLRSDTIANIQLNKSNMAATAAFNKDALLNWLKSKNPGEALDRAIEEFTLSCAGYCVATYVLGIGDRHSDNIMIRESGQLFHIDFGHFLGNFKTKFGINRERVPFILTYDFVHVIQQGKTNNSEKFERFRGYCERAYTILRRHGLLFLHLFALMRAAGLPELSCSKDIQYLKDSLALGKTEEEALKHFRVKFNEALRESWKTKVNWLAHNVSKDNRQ

Protein sequences, listed by entry. Tags and fused reporters are not part of them.
UniProt P42338: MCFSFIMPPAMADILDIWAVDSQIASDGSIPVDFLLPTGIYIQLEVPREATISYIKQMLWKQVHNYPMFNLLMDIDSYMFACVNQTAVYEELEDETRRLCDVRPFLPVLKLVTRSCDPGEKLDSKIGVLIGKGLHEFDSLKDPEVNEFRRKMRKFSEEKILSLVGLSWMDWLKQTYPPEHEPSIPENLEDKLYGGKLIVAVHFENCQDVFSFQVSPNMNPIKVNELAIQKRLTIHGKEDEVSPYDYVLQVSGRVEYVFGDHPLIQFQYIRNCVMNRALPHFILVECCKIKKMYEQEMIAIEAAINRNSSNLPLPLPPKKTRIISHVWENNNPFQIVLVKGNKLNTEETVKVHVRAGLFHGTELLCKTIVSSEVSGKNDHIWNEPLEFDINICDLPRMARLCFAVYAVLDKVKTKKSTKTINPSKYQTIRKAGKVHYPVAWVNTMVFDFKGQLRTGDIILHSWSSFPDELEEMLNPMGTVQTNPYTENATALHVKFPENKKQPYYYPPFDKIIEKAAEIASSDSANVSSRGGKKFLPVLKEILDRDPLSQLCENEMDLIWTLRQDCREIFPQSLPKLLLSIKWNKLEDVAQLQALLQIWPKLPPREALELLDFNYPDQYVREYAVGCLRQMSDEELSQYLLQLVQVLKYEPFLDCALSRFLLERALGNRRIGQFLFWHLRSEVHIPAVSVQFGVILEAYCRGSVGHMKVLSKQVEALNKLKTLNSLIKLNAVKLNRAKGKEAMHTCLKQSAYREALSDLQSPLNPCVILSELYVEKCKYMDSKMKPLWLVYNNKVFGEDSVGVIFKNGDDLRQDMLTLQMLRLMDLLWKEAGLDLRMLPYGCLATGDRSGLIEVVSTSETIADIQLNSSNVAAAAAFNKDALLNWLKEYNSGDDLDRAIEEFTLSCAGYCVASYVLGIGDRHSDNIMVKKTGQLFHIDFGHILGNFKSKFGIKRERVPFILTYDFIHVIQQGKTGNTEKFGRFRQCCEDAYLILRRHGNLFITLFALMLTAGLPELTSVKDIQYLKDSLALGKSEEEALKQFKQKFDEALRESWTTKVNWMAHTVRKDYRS
UniProt P42336: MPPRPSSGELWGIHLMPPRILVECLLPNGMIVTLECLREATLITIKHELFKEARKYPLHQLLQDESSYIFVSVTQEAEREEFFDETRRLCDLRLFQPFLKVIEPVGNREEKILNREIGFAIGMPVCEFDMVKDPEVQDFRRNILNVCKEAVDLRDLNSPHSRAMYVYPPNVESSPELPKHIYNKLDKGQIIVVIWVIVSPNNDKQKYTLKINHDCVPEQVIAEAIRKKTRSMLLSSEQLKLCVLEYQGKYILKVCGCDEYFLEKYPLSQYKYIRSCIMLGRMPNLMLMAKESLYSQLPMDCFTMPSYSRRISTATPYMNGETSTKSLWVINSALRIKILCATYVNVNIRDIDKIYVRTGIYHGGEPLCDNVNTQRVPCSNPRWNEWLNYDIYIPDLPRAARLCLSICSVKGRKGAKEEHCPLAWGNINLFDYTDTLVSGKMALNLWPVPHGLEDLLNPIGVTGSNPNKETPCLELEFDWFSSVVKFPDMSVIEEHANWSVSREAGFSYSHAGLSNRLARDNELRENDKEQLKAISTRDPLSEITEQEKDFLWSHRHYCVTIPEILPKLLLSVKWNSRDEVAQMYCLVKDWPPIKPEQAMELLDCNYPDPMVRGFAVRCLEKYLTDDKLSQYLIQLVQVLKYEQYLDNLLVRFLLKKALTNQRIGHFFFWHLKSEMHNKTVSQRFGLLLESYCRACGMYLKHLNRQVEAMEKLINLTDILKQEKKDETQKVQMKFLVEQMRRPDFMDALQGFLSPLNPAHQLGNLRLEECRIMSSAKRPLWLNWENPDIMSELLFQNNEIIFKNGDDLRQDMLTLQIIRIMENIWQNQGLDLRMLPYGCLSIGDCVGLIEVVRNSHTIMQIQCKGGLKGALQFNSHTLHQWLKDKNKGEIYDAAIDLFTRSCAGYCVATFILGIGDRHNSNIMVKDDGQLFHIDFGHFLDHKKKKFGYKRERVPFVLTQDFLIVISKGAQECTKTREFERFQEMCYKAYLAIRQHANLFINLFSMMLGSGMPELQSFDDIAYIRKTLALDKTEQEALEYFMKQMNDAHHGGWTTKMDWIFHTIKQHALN
UniProt P17302: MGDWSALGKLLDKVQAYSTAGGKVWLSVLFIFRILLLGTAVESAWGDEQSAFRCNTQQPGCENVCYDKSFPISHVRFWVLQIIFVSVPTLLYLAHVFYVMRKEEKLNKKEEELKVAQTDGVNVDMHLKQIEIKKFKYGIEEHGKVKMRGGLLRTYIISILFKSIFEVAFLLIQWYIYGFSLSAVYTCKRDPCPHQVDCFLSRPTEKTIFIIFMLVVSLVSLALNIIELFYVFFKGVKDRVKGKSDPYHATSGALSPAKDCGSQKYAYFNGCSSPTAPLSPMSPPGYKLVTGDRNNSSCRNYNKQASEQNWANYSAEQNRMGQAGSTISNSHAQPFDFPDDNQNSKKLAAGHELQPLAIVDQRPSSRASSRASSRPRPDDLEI

[2] = biological target: PI3K catalytic subunit β (human (endogenous in U87MG)) (UniProt P42338)
[3] = biological target: PI3K catalytic subunit α (human (endogenous in U87MG)) (UniProt P42336)

## connexin 43 (from UniProt P17302 1-382)
[1]
  binding: no binding
[2]
  binding: binds
[3]
  binding: no binding

From publication PMC8755794
